From article PMC7418988, “IgaA negatively regulates the Rcs Phosphorelay via contact with the RcsD Phosphotransfer Protein” (PLoS Genetics, 2020) come the findings set out here.

For test [1], the target named is T1, IgaA fused to the T18 or the T25 fragment of adenylate cyclase (E. coli) (UniProt P45800).
T1 sequence: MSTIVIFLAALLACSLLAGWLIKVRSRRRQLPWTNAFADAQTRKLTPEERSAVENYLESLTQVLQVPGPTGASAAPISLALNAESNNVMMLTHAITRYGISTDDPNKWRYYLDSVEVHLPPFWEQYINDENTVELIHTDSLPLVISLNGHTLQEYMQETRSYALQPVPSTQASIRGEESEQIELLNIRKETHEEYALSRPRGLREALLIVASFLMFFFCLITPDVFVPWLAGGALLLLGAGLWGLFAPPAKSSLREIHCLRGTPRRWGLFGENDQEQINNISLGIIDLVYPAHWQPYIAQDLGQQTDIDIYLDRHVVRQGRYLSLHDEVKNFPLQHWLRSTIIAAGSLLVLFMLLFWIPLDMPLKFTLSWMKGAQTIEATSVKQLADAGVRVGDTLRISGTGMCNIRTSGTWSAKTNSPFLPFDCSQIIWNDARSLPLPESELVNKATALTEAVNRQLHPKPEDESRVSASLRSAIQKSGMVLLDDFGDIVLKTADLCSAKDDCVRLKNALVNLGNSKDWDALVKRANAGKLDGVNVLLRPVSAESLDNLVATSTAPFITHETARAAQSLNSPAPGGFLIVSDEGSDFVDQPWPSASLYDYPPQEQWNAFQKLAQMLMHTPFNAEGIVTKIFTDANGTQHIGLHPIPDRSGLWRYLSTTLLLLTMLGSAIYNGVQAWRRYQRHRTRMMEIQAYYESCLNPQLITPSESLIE
The test is described as follows: two-hybrid; bacterial adenylate cyclase two-hybrid (BACTH): T18 and T25 fragments fused C-terminally to the two proteins, two plasmids in cyaA deficient E. coli BTH101; beta-galactosidase activity (Miller units) against fusion plus empty cognate vector as background; threshold for reliable interaction 4x over background; IgaA/RcsD also tested in rcsB, rcsC, rcsF and rcsD mutant hosts; in the rows the T25 fusion is the binder, the T18 fusion the target.

The target of test [2] is T2, RcsD fused to the T25 or the T18 fragment of adenylate cyclase (E. coli) (UniProt P39838).
T2 sequence: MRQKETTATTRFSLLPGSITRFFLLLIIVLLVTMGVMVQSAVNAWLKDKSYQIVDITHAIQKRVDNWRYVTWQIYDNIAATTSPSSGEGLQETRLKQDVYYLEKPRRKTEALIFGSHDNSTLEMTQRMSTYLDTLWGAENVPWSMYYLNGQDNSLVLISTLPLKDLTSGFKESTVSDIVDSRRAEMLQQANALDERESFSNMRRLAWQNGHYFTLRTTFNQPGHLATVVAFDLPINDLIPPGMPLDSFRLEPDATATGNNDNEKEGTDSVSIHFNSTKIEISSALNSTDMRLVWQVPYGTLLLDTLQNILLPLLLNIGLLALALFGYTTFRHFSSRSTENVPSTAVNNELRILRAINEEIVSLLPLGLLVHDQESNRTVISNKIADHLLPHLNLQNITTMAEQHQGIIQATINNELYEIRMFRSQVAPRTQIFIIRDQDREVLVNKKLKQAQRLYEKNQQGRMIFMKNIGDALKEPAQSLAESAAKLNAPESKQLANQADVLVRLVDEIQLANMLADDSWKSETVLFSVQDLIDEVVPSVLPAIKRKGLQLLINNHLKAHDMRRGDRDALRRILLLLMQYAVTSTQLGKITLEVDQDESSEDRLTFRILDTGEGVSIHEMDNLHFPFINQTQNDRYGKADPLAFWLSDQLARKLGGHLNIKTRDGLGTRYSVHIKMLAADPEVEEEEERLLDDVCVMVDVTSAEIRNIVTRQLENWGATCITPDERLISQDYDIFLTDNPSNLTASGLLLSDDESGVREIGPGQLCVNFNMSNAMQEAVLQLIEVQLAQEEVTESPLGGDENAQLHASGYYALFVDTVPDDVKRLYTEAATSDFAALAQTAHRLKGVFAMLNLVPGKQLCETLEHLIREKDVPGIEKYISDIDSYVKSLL
The description is as above.

Test [3] concerns the target T1, IgaA fused to the T18 or the T25 fragment of adenylate cyclase (E. coli). The test is described as follows: two-hybrid; BACTH read on a Lactose MacConkey plate with Ampicillin and Kanamycin, BTH101 co-transformed with T18 and T25 plasmids, two days at 30°C; positive interactions are red.

These are yes or no findings as the source states them, for the method shown. Some entries that bind do so weakly or less than the wild type. Where a sequence is shown, tags or fusion partners need not be part of it.

B1: RcsD_(1-461)-T25 (domain or fragment, UniProt P39838 1-461)
chain: MRQKETTATTRFSLLPGSITRFFLLLIIVLLVTMGVMVQSAVNAWLKDKSYQIVDITHAIQKRVDNWRYVTWQIYDNIAATTSPSSGEGLQETRLKQDVYYLEKPRRKTEALIFGSHDNSTLEMTQRMSTYLDTLWGAENVPWSMYYLNGQDNSLVLISTLPLKDLTSGFKESTVSDIVDSRRAEMLQQANALDERESFSNMRRLAWQNGHYFTLRTTFNQPGHLATVVAFDLPINDLIPPGMPLDSFRLEPDATATGNNDNEKEGTDSVSIHFNSTKIEISSALNSTDMRLVWQVPYGTLLLDTLQNILLPLLLNIGLLALALFGYTTFRHFSSRSTENVPSTAVNNELRILRAINEEIVSLLPLGLLVHDQESNRTVISNKIADHLLPHLNLQNITTMAEQHQGIIQATINNELYEIRMFRSQVAPRTQIFIIRDQDREVLVNKKLKQAQRLYEKNQQG
In the case of B1, the binding entry in test [1] is reported as “binds”.

B2: RcsD_(326-C)-T25 (domain or fragment, UniProt P39838 326-890)
chain: GYTTFRHFSSRSTENVPSTAVNNELRILRAINEEIVSLLPLGLLVHDQESNRTVISNKIADHLLPHLNLQNITTMAEQHQGIIQATINNELYEIRMFRSQVAPRTQIFIIRDQDREVLVNKKLKQAQRLYEKNQQGRMIFMKNIGDALKEPAQSLAESAAKLNAPESKQLANQADVLVRLVDEIQLANMLADDSWKSETVLFSVQDLIDEVVPSVLPAIKRKGLQLLINNHLKAHDMRRGDRDALRRILLLLMQYAVTSTQLGKITLEVDQDESSEDRLTFRILDTGEGVSIHEMDNLHFPFINQTQNDRYGKADPLAFWLSDQLARKLGGHLNIKTRDGLGTRYSVHIKMLAADPEVEEEEERLLDDVCVMVDVTSAEIRNIVTRQLENWGATCITPDERLISQDYDIFLTDNPSNLTASGLLLSDDESGVREIGPGQLCVNFNMSNAMQEAVLQLIEVQLAQEEVTESPLGGDENAQLHASGYYALFVDTVPDDVKRLYTEAATSDFAALAQTAHRLKGVFAMLNLVPGKQLCETLEHLIREKDVPGIEKYISDIDSYVKSLL
For B2, in test [1], the binding entry is recorded as “no binding”.

B3: RcsC fused to the T18 or the T25 fragment of adenylate cyclase (enzyme, UniProt P0DMC5 1-949)
chain: MKYLASFRTTLKASRYMFRALALVLWLLIAFSSVFYIVNALHQRESEIRQEFNLSSDQAQRFIQRTSDVMKELKYIAENRLSAENGVLSPRGRETQADVPAFEPLFADSDCSAMSNTWRGSLESLAWFMRYWRDNFSAAYDLNRVFLIGSDNLCMANFGLRDMPVERDTALKALHERINKYRNAPQDDSGSNLYWISEGPRPGVGYFYALTPVYLANRLQALLGVEQTIRMENFFLPGTLPMGVTILDENGHTLISLTGPESKIKGDPRWMQERSWFGYTEGFRELVLKKNLPPSSLSIVYSVPVDKVLERIRMLILNAILLNVLAGAALFTLARMYERRIFIPAESDALRLEEHEQFNRKIVASAPVGICILRTADGVNILSNELAHTYLNMLTHEDRQRLTQIICGQQVNFVDVLTSNNTNLQISFVHSRYRNENVAICVLVDVSSRVKMEESLQEMAQAAEQASQSKSMFLATVSHELRTPLYGIIGNLDLLQTKELPKGVDRLVTAMNNSSSLLLKIISDILDFSKIESEQLKIEPREFSPREVMNHITANYLPLVVRKQLGLYCFIEPDVPVALNGDPMRLQQVISNLLSNAIKFTDTGCIVLHVRADGDYLSIRVRDTGVGIPAKEVVRLFDPFFQVGTGVQRNFQGTGLGLAICEKLISMMDGDISVDSEPGMGSQFTVRIPLYGAQYPQKKGVEGLSGKRCWLAVRNASLCQFLETSLQRSGIVVTTYEGQEPTPEDVLITDEVVSKKWQGRAVVTFCRRHIGIPLEKAPGEWVHSVAAPHELPALLARIYLIEMESDDPANALPSTDKAVSDNDDMMILVVDDHPINRRLLADQLGSLGYQCKTANDGVDALNVLSKNHIDIVLSDVNMPNMDGYRLTQRIRQLGLTLPVIGVTANALAEEKQRCLESGMDSCLSKPVTLDVIKQTLTLYAERVRKSRDS
Take B3: the binding entry in test [2] and in test [1] was “no binding” each time.

B4: RcsD_(1-383)-T25 (domain or fragment, UniProt P39838 1-383)
chain: MRQKETTATTRFSLLPGSITRFFLLLIIVLLVTMGVMVQSAVNAWLKDKSYQIVDITHAIQKRVDNWRYVTWQIYDNIAATTSPSSGEGLQETRLKQDVYYLEKPRRKTEALIFGSHDNSTLEMTQRMSTYLDTLWGAENVPWSMYYLNGQDNSLVLISTLPLKDLTSGFKESTVSDIVDSRRAEMLQQANALDERESFSNMRRLAWQNGHYFTLRTTFNQPGHLATVVAFDLPINDLIPPGMPLDSFRLEPDATATGNNDNEKEGTDSVSIHFNSTKIEISSALNSTDMRLVWQVPYGTLLLDTLQNILLPLLLNIGLLALALFGYTTFRHFSSRSTENVPSTAVNNELRILRAINEEIVSLLPLGLLVHDQESNRTVISNK
In the case of B4, the binding result in test [1] is recorded as “no binding”.

B5: RcsD_(1-461, Δ45–304)-T25 (domain or fragment, UniProt P39838)
chain: MRQKETTATTRFSLLPGSITRFFLLLIIVLLVTMGVMVQSAVNATLQNILLPLLLNIGLLALALFGYTTFRHFSSRSTENVPSTAVNNELRILRAINEEIVSLLPLGLLVHDQESNRTVISNKIADHLLPHLNLQNITTMAEQHQGIIQATINNELYEIRMFRSQVAPRTQIFIIRDQDREVLVNKKLKQAQRLYEKNQQG
Take B5: the binding result in test [3] is reported as “binds”.

B6: RcsD_(1-522)-T25 (domain or fragment, UniProt P39838 1-522)
chain: MRQKETTATTRFSLLPGSITRFFLLLIIVLLVTMGVMVQSAVNAWLKDKSYQIVDITHAIQKRVDNWRYVTWQIYDNIAATTSPSSGEGLQETRLKQDVYYLEKPRRKTEALIFGSHDNSTLEMTQRMSTYLDTLWGAENVPWSMYYLNGQDNSLVLISTLPLKDLTSGFKESTVSDIVDSRRAEMLQQANALDERESFSNMRRLAWQNGHYFTLRTTFNQPGHLATVVAFDLPINDLIPPGMPLDSFRLEPDATATGNNDNEKEGTDSVSIHFNSTKIEISSALNSTDMRLVWQVPYGTLLLDTLQNILLPLLLNIGLLALALFGYTTFRHFSSRSTENVPSTAVNNELRILRAINEEIVSLLPLGLLVHDQESNRTVISNKIADHLLPHLNLQNITTMAEQHQGIIQATINNELYEIRMFRSQVAPRTQIFIIRDQDREVLVNKKLKQAQRLYEKNQQGRMIFMKNIGDALKEPAQSLAESAAKLNAPESKQLANQADVLVRLVDEIQLANMLADDSWKS
For the molecule B6, in test [1], the binding entry is given as “binds”.

B7: RcsD_(1-683)-T25 (domain or fragment, UniProt P39838 1-683)
chain: MRQKETTATTRFSLLPGSITRFFLLLIIVLLVTMGVMVQSAVNAWLKDKSYQIVDITHAIQKRVDNWRYVTWQIYDNIAATTSPSSGEGLQETRLKQDVYYLEKPRRKTEALIFGSHDNSTLEMTQRMSTYLDTLWGAENVPWSMYYLNGQDNSLVLISTLPLKDLTSGFKESTVSDIVDSRRAEMLQQANALDERESFSNMRRLAWQNGHYFTLRTTFNQPGHLATVVAFDLPINDLIPPGMPLDSFRLEPDATATGNNDNEKEGTDSVSIHFNSTKIEISSALNSTDMRLVWQVPYGTLLLDTLQNILLPLLLNIGLLALALFGYTTFRHFSSRSTENVPSTAVNNELRILRAINEEIVSLLPLGLLVHDQESNRTVISNKIADHLLPHLNLQNITTMAEQHQGIIQATINNELYEIRMFRSQVAPRTQIFIIRDQDREVLVNKKLKQAQRLYEKNQQGRMIFMKNIGDALKEPAQSLAESAAKLNAPESKQLANQADVLVRLVDEIQLANMLADDSWKSETVLFSVQDLIDEVVPSVLPAIKRKGLQLLINNHLKAHDMRRGDRDALRRILLLLMQYAVTSTQLGKITLEVDQDESSEDRLTFRILDTGEGVSIHEMDNLHFPFINQTQNDRYGKADPLAFWLSDQLARKLGGHLNIKTRDGLGTRYSVHIKMLAADPEV
On to B7, for which the binding entry in test [1] was “binds”.
